Taken from: PubChem BioAssay AID1224826 (NIAID, 2016)

Purpose: 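Knock-downs that raise or lower Tnf reporter signal after endotoxin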 (primary screen)
System: RAW264.7 G9 macrophages from mouse bearing reporters for p65 (GFP) and the Tnf promoter (mCherry)
Reagent: siRNA pool against mouse genes, 100 nM
Time to read-out: 16 h of LPS stimulation, after 2 days of siRNA transfection
Treatment: bacterial lipopolysaccharide (Salmonella minnesota R595), 10 ng/ml
Measured: 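Imaged Tnf reporter mCherry in nuclei, minus background, normalised per plate to the median and expressed as robust z-scores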
Direction: Tnf reporter robust z-score: higher = stronger Tnf promoter reporter signal after LPS
Active means: 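a well counts as active at a score of -1.3 or below (Tlr4 knock-down control median) or above 3 (raised signal); controls and wells holding fewer than 50 cells are excluded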
Meaning of the calls: active = Tnf reporter clearly lowered or raised; inactive = no clear change in Tnf reporter
This is a random part of about 17,000 deposited reagents. About 1,110 of them (6.6%) count as active. 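Active means lowered or raised reporter signal; replicate intensities are raw and not normalised per plate.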 A number with no mark means an inactive call. Not all columns of the deposit are shown. No sequences are given here.

Apln
- Tnf reporter robust z-score: 0
- fewer than 50 cells in well: enough cells in well

Klra16
- Tnf reporter robust z-score: 0.63
- fewer than 50 cells in well: enough cells in well

Plp2
- Tnf reporter robust z-score: -0.41
- fewer than 50 cells in well: enough cells in well

Or7e178
- Tnf reporter robust z-score: 0.29
- fewer than 50 cells in well: enough cells in well

Zswim9
- Tnf reporter robust z-score: 0.14
- fewer than 50 cells in well: enough cells in well

Wdr24
- Tnf reporter robust z-score: -0.03
- fewer than 50 cells in well: enough cells in well

Cap2
- Tnf reporter robust z-score: -0.17
- fewer than 50 cells in well: enough cells in well

Scara3
- Tnf reporter robust z-score: 0
- fewer than 50 cells in well: enough cells in well

Celf1
- Tnf reporter robust z-score: 0.16
- fewer than 50 cells in well: enough cells in well

Kdm6a
- Tnf reporter robust z-score: 1.95
- fewer than 50 cells in well: enough cells in well

Uty
- Tnf reporter robust z-score: 0.88
- fewer than 50 cells in well: enough cells in well

Or2t1
- Tnf reporter robust z-score: -0.41
- fewer than 50 cells in well: enough cells in well

Ccdc63
- fewer than 50 cells in well: fewer than 50 cells per well; well left out of calls

Continued (2 carried over from the part before).
Or2t1
- Tnf reporter robust z-score: -0.41
- fewer than 50 cells in well: enough cells in well

Ccdc63
- fewer than 50 cells in well: fewer than 50 cells per well; well left out of calls

Bmp3
- Tnf reporter robust z-score: -2 (active)
- fewer than 50 cells in well: enough cells in well

Slc7a2
- Tnf reporter robust z-score: 2.82
- fewer than 50 cells in well: enough cells in well

Pkig
- Tnf reporter robust z-score: -0.85
- fewer than 50 cells in well: enough cells in well

Ebi3
- Tnf reporter robust z-score: -1.02
- fewer than 50 cells in well: enough cells in well

Tns2
- Tnf reporter robust z-score: 0.74
- fewer than 50 cells in well: enough cells in well

Plekhh3
- Tnf reporter robust z-score: 0.46
- fewer than 50 cells in well: enough cells in well

Cdx1
- Tnf reporter robust z-score: -0.68
- fewer than 50 cells in well: enough cells in well

Nudt4
- Tnf reporter robust z-score: 0.3
- fewer than 50 cells in well: enough cells in well
